Reference: PubChem BioAssay AID743121 (NCATS, 2013)
Assay: 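Partners whose loss is lethal together with topoisomerase I blockade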 (primary screen). Cells: MDA-MB-231 cells, a human breast cancer line. Reagent: single siRNA against human genes, 20 nM siRNA (0.8 pmol per well). Timing: 120 h (drug added 48 h after transfection, read 72 h later). Challenge: camptothecin 20 nM (about EC30) for 72 h; vehicle 0.1% DMSO in parallel plates. Detection: 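CellTiter-Glo ATP signal, scaled to control siRNA as percent viability; sensitisation given as log2 of untreated divided by camptothecin-treated viability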. Scale: log2 vehicle/camptothecin viability: higher = stronger sensitisation to camptothecin; viability with camptothecin and viability without drug: higher = more viable cells. Call rule: 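Active genes have an RSA gene-level p-value below 0.001, computed from the ratios of their separate siRNAs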.
The whole screen tested about 26,000 reagents; shown is a random part of them. Over the whole deposit, 167 (0.63%) got an active call. 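Calls are per gene from RSA p-values that are not deposited; an individual active-marked siRNA can sensitise only weakly.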 A number with no mark means an inactive call.

gene symbol | PubChem SID | log2 vehicle/camptothecin viability | viability with camptothecin (% of control) | viability without drug (% of control)
TRDMT1 (tRNA aspartic acid methyltransferase 1) | SID164361925 | 0.385 | 51 | 66.7
TRDMT1 (tRNA aspartic acid methyltransferase 1) | SID164361926 | -0.202 | 104 | 90.1
TRDMT1 (tRNA aspartic acid methyltransferase 1) | SID164361927 | 0.207 | 87.3 | 101
PAFAH2 (platelet activating factor acetylhydrolase 2) | SID164379340 | -0.354 | 48.5 | 38
PAFAH2 (platelet activating factor acetylhydrolase 2) | SID164379341 | -0.123 | 115 | 105
PAFAH2 (platelet activating factor acetylhydrolase 2) | SID164379343 | 0.315 | 4.64 | 5.78
PAFAH2 (platelet activating factor acetylhydrolase 2) | SID164379344 | -0.162 | 87.5 | 78.2
FOLR3 (folate receptor gamma) | SID164365301 | -0.192 | 100 | 87.6
FOLR3 (folate receptor gamma) | SID164365302 | 0.412 | 71.3 | 94.8
FOLR3 (folate receptor gamma) | SID164365304 | -0.445 | 47 | 34.5
FOLR3 (folate receptor gamma) | SID164365307 | -0.157 | 29.7 | 26.6
MYCN (MYCN proto-oncogene, bHLH transcription factor) | SID164376670 | -0.0962 | 68.6 | 64.1
MYCN (MYCN proto-oncogene, bHLH transcription factor) | SID164376674 | 0.063 | 81.1 | 84.7
MYCN (MYCN proto-oncogene, bHLH transcription factor) | SID164376675 | -0.339 | 114 | 90.2
MYCN (MYCN proto-oncogene, bHLH transcription factor) | SID164376678 | -0.64 | 89.5 | 57.4
ATP2B1 (ATPase plasma membrane Ca2+ transporting 1) | SID164354596 | -0.203 | 95.2 | 82.7
ATP2B1 (ATPase plasma membrane Ca2+ transporting 1) | SID164354597 | 0.12 | 86 | 93.4
ATP2B1 (ATPase plasma membrane Ca2+ transporting 1) | SID164354598 | -0.313 | 71.7 | 57.7
ATP2B1 (ATPase plasma membrane Ca2+ transporting 1) | SID164354601 | 0.236 | 77.7 | 91.6
CUL1 (cullin 1) | SID164397712 | -0.369 | 79.1 | 61.2
CUL1 (cullin 1) | SID164397713 | 0.251 | 59.1 | 70.3
CUL1 (cullin 1) | SID164397715 | -0.465 | 107 | 77.4
CUL1 (cullin 1) | SID164397716 | 0.583 | 7.32 | 11
KCNQ1 (potassium voltage-gated channel subfamily Q member 1) | SID164372589 | -0.123 | 109 | 100
KCNQ1 (potassium voltage-gated channel subfamily Q member 1) | SID164372590 | -0.0196 | 96.7 | 95.4
KCNQ1 (potassium voltage-gated channel subfamily Q member 1) | SID164372592 | 0.126 | 65 | 70.9
GNG7 (G protein subunit gamma 7) | SID164367000 | -0.168 | 105 | 93.8
GNG7 (G protein subunit gamma 7) | SID164367001 | -0.107 | 103 | 95.7
GNG7 (G protein subunit gamma 7) | SID164367002 | 0.322 | 44.1 | 55.2
GNG7 (G protein subunit gamma 7) | SID164367003 | -0.0404 | 113 | 110

A portion from the list above:
gene symbol | PubChem SID | log2 vehicle/camptothecin viability | viability with camptothecin (% of control) | viability without drug (% of control)
FOLR3 (folate receptor gamma) | SID164365301 | -0.192 | 100 | 87.6
FOLR3 (folate receptor gamma) | SID164365302 | 0.412 | 71.3 | 94.8
FOLR3 (folate receptor gamma) | SID164365304 | -0.445 | 47 | 34.5
FOLR3 (folate receptor gamma) | SID164365307 | -0.157 | 29.7 | 26.6
MYCN (MYCN proto-oncogene, bHLH transcription factor) | SID164376670 | -0.0962 | 68.6 | 64.1

The list goes on.
gene symbol | PubChem SID | log2 vehicle/camptothecin viability | viability with camptothecin (% of control) | viability without drug (% of control)
NPFFR1 (neuropeptide FF receptor 1) | SID164501190 | -0.28 | 64.5 | 53.1
NPFFR1 (neuropeptide FF receptor 1) | SID164501191 | 0.131 | 81.4 | 89.1
NPFFR1 (neuropeptide FF receptor 1) | SID164501192 | -0.0887 | 17.8 | 16.7
NPFFR1 (neuropeptide FF receptor 1) | SID164501195 | -0.0431 | 66.7 | 64.8
WNT3 (Wnt family member 3) | SID164394064 | 0.158 | 60.6 | 67.6
WNT3 (Wnt family member 3) | SID164394066 | -0.0043 | 90.8 | 90.5
WNT3 (Wnt family member 3) | SID164394067 | -0.0288 | 54.6 | 53.5
WNT3 (Wnt family member 3) | SID164394068 | -0.137 | 53.6 | 48.8
G6PC1 (glucose-6-phosphatase catalytic subunit 1) | SID164365596 | -0.639 | 66.8 | 42.9
G6PC1 (glucose-6-phosphatase catalytic subunit 1) | SID164365597 | -0.236 | 98.5 | 83.6
G6PC1 (glucose-6-phosphatase catalytic subunit 1) | SID164365598 | -0.17 | 80.7 | 71.7
G6PC1 (glucose-6-phosphatase catalytic subunit 1) | SID164365600 | -0.174 | 27 | 23.9
ALDH2 (aldehyde dehydrogenase 2 family member) | SID164352979 | 1.15 | 17.8 | 39.7
ALDH2 (aldehyde dehydrogenase 2 family member) | SID164352980 | -0.0726 | 67.2 | 63.9
ALDH2 (aldehyde dehydrogenase 2 family member) | SID164352981 | 0.119 | 62.5 | 67.9
ALDH2 (aldehyde dehydrogenase 2 family member) | SID164352983 | -0.0576 | 94.4 | 90.7
GDAP1 (ganglioside induced differentiation associated protein 1) | SID164478216 | -0.471 | 53.1 | 38.3
GDAP1 (ganglioside induced differentiation associated protein 1) | SID164478217 | -0.589 | 103 | 68.2
GDAP1 (ganglioside induced differentiation associated protein 1) | SID164478219 | -0.344 | 65.8 | 51.8
GDAP1 (ganglioside induced differentiation associated protein 1) | SID164478220 | 0.276 | 14.4 | 17.4
ZNF71 (zinc finger protein 71) | SID164497054 | 0.236 | 66 | 77.7
ZNF71 (zinc finger protein 71) | SID164497056 | 0.38 | 62.5 | 81.4
ZNF71 (zinc finger protein 71) | SID164497059 | -0.554 | 133 | 90.5
GPR137C (G protein-coupled receptor 137C) | SID164614801 | 0.00372 | 112 | 113
GPR137C (G protein-coupled receptor 137C) | SID164614802 | -0.0857 | 99.3 | 93.6
GPR137C (G protein-coupled receptor 137C) | SID164614804 | -0.108 | 99.9 | 92.7
KIT (KIT proto-oncogene, receptor tyrosine kinase) | SID164372879 | -0.149 | 65.9 | 59.5
KIT (KIT proto-oncogene, receptor tyrosine kinase) | SID164372880 | -0.462 | 61.1 | 44.4
KIT (KIT proto-oncogene, receptor tyrosine kinase) | SID164372881 | -0.251 | 93.7 | 78.7
KIT (KIT proto-oncogene, receptor tyrosine kinase) | SID164372882 | -0.00268 | 113 | 113
GALE (UDP-galactose-4-epimerase) | SID164365921 | -0.527 | 59.4 | 41.2
GALE (UDP-galactose-4-epimerase) | SID164365923 | -0.0654 | 75.9 | 72.6
GALE (UDP-galactose-4-epimerase) | SID164365926 | -0.447 | 125 | 91.5
GALE (UDP-galactose-4-epimerase) | SID164365927 | -0.467 | 103 | 74.4
PTBP1 (polypyrimidine tract binding protein 1) | SID164383601 | -0.345 | 78.7 | 61.9
PTBP1 (polypyrimidine tract binding protein 1) | SID164383602 | -0.296 | 95.8 | 78
PTBP1 (polypyrimidine tract binding protein 1) | SID164383606 | 0.15 | 35.7 | 39.6
PTBP1 (polypyrimidine tract binding protein 1) | SID164383607 | -0.36 | 22.4 | 17.5
